# Tested on: DIO C57BL/6 male mice
# Assay type: in vivo, mouse
# Details: no difference between the two groups
# Method: A dedicated study was conducted under contract at the University of Buckingham Institute of Translational Medicine (Pr. M A Cawthorne, Pr. P Trayhurn, Dr. C. Stocker) to assess the energetic and metabolic responses to the APT-110 miR-22-3p inhibitor treatment in adult Diet-Inducted-Obese (DIO) C57BL/6 male mice over the course of 3 months. Twenty-four DIO male C57BL/6 mice, who started on 60% high fat diet at the age of 7 weeks, were purchased at 15 weeks of age from the Jackson Laboratory, USA. The mice remained on a 60% high fat diet (Research Diet D12492) throughout the experiment. […]
# For oral glucose tolerance test, food was removed six hours prior to the start of the glucose tolerance test (09h00) and animals were placed in clean cages. […] Plasma nonesterified Fatty Acids (NEFA, Crystal Wako Chemicals Gmbh, Neuss, Germany, Cat 999-75406), leptin (Crystal Chem. Inc., Cat LEP90030) and adiponectin (Alpco Diagnostics, Salem, New Hampshire, Cat 47-ADPMS-E01) were measured as per the manufacturers' recommendations. Body fat and lean content was measured by Nuclear Magnetic Resonance (NMR). […] Dedicated software was used to quantify amounts of adipose and fat. […]
# To measure physical activity, mice were kept in their original cages of 2 mice per cage. […] Recordings were analyzed by eye and the number of times a line was broken by a mouse in each 10-minute segment was scored. […]
substance,measurement,setting,value
5′-5mCpsTpsTps2′OMeCpsTpsTps5mCpsApsAps2′OMeCpsTpsGpsGps5mCpsApsGps5mCpsT-3′ [APT-110],total food consumption,12 weeks,229±6 grams per cage
same,night time physical activity,,54±8 line breaks per cage

# — patent US12286625B2, “Inhibition of mir-22 miRNA by APT-110” (AptamiR Therapeutics, Inc., priority 2016, dated 2025)
